Test results reported in patent US10053477B2, “Spirocyclic aryl phosphorus oxide and aryl phosphorus sulfide” (QILU PHARMACEUTICAL CO., LTD., priority 2014, dated 2018).
Some of these results come from one statement about several compounds together. Some ranges recur; such a range may be that of the whole group of compounds.

Tested on: LU-01-0015 xenotransplantation (PDX) from lung cancer patients
Assay: In vivo efficacy, LU-01-0015 xenotransplantation (PDX) from lung cancer patients
Design: species or system BALB/c nude mice
Conditions: after 16 days, 25 mg/kg
Excerpt: BALB/c nude mice, female, 6 to 8 weeks, about 18 to 22 g bodyweight, was kept in a special environment without pathogens, and a single ventilated cage (5 mice per cage). Beddings and water in all the cages were disinfected before use. […] 80 mice were supplied by Shanghai BK Laboratory Animal Co., LTD for study. Each mouse was subcutaneously implanted tumor tissue (20-30 mm^3) at right flank for growth of tumor. When the average tumor volume reached about 250-300 mm^3, the assay started. Test compounds were delivered orally everyday, 25 mg/kg. Tumor size was measured with two-dimensional caliper every 3 days, size was recorded by mm^3, and calculated by the following formula: V=V=0.5a×b2, where a and b are respectively the long diameter and short diameter length of the tumor. The antitumor efficacy was determined by dividing the average increased tumor volume in compound-treated animal by the average increased tumor volume in untreated animal.

COc1cc(N2CCC3(CCN(C)CC3)CC2)ccc1Nc1ncc(Cl)c(Nc2ccccc2P(C)(C)=S)n1 [Compound 12, 5-Chloro-N^4-(2-(dimethylphosphorothioyl)phenyl)-N^2-(2-methoxy-4-(9-methyl-3,9-diazaspiro[5.5]undecan-3-yl)phenyl)pyrimidine-2,4-diamine]
tumor volume was reduced to (from 277 mm^3): 34-50 mm^3
